This passage reports binding results from article doi:10.1101/2023.11.02.565342.

Where a chain is given by its changes, count along the chain named. Results are given in words; binding and its absence hold for the method and conditions named.

Assay [1] deals with TOPOVIBLΔC25 (mouse) (UniProt J3QMY9). The assay is described as follows: native MS.
Assay [2] shares this target. The experiment in a line: SEC-SAXS.
The target is the same in assay [3]. The experiment in a line: SEC. (SEC sorts molecules by how far they enter the pores of the column.)
Assay [4] has the same target. The assay is described as follows: SEC-MALS.
In a further assay the target is T1, TOPOVIBLΔC25 K281E K282E (Mus musculus, UniProt J3QMY9 1-554, K281E;K282E).
T1 sequence: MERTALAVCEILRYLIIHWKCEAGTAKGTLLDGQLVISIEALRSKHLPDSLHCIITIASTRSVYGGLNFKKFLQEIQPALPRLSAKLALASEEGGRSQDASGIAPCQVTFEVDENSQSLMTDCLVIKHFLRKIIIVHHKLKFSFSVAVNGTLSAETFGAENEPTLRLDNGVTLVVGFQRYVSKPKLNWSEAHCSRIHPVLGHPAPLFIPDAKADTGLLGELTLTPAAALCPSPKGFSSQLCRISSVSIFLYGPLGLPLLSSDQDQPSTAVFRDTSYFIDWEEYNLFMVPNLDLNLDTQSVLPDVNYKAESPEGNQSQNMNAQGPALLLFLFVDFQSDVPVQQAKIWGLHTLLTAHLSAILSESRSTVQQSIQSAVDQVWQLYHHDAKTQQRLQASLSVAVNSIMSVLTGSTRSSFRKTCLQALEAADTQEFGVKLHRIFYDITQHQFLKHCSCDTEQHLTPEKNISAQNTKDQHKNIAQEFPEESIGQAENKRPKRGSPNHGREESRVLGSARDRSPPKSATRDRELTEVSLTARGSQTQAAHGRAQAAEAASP
The assay is described as follows: SEC.

B1: TOPOVIBLΔC25 (domain or fragment, UniProt J3QMY9 1-554)
chain: T1 sequence with E281K, E282K
For the molecule B1, the binding result is on record as “no binding” with TOPOVIBLΔC25 (mouse) [1], “no binding (tested: 12 mg/mL injected)” with TOPOVIBLΔC25 (mouse) [2], “no binding (condition: after 50 mM DTT)” with TOPOVIBLΔC25 (mouse) [3] and “no binding” in the assay with TOPOVIBLΔC25 (mouse) [4].

B2: TOPOVIBLΔC25^K281EK282E (domain or fragment, UniProt J3QMY9 1-554)
chain: T1 sequence
On to B2, for which, in the assay with TOPOVIBLΔC25 K281E K282E, the binding entry is “no binding”.
